# Results published in PubChem BioAssay AID192 (DTP/NCI, 2004).
# The list does not hold the whole screen: it is rich in T/C values a quarter to a half above the control, in often repeated tests (any T/C) and in doses without a T/C. Further doses and runs are listed elsewhere. T/C: endpoint of the treated group in % of that of the vehicle group. Some entries give survivors of the animals treated and no T/C: the source files T/C as zero there, which appears to mark a toxic dose or a test without result, not a measured value. Some doses without a T/C left all or most animals alive at the check, yet need not have been tolerated: survival well below the control is almost never listed, so the zero probably covers shortened survival too. Counts of survivors are from the toxicity check (mostly the fifth day) where no day follows; animals may have died later. Schedule codes are those of the source, read here as Q, the interval in days (D) or hours (H), X, the number of doses. Some doses were run more than once; their values stand side by side, smallest first. Some molecules as drawn cover several salts, stereoisomers or complexes of the source; a dose is that of the sample tested. Where survival is the endpoint, this PubChem deposit counts one and a half times the control or more as active, and values a quarter to a half above the control carry no call in these data; other NCI protocols may use other cut-offs. Some T/C values carry the count of animals alive at the toxicity check (mostly the fifth day); without a count, all were alive then. Numbered stars: 1 amine (or outer) side, 2 acyl side, 3 side chain; on linkers, the order of the positions; unused ones are H or OH. Peptide text beside a SMILES is read from it. * marks the point of attachment. Trt = c1ccc(C(c2ccccc2)(c2ccccc2)*)cc1; γGlu = O=C(O)[CH](CCC(=O)[*:2])N[*:1]; Cbz = O=C(OCc1ccccc1)*
# System: BDF1 mice, B16 melanoma ip, median survival T/C
# Assay: NCI In Vivo Anticancer Drug Screen. Data for tumor model B16 Melanoma (intraperitoneal) in B6D2F1 (BDF1) mice
# Details: T/C endpoint: median survival time, higher T/C = longer survival
# How it was run: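 In this screen, activity was judged from survival or tumor size in treated versus vehicle-treated tumor-bearing mice, reported as T/C.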
# [1] = dose: 12.5 mg/kg/injection, schedule: Q01DX009 (ip), vehicle: water
# [2] = dose: 25.0 mg/kg/injection, schedule: Q01DX009 (ip), vehicle: Klucel (hydroxypropylcellulose) (HPC)
# [3] = dose: 100.0 mg/kg/injection, schedule: Q01DX009 (ip), vehicle: Klucel (hydroxypropylcellulose) (HPC)
# [4] = dose: 200.0 mg/kg/injection, schedule: Q01DX009 (ip), vehicle: Klucel (hydroxypropylcellulose) (HPC)
# [5] = dose: 400.0 mg/kg/injection, schedule: Q01DX009 (ip), vehicle: Klucel (hydroxypropylcellulose) (HPC)
# [6] = dose: 50.0 mg/kg/injection, schedule: Q01DX009 (ip), vehicle: saline with Tween-80
# [7] = dose: 100.0 mg/kg/injection, schedule: Q01DX009 (ip), vehicle: saline with Tween-80
# [8] = dose: 200.0 mg/kg/injection, schedule: Q01DX009 (ip), vehicle: saline with Tween-80
# [9] = dose: 400.0 mg/kg/injection, schedule: Q01DX009 (ip), vehicle: saline with Tween-80
# [10] = dose: 400.0 mg/kg/injection, schedule: Q01DX009 (ip), vehicle: saline
# [11] = dose: 10.0 mg/kg/injection, schedule: Q01DX009 (ip), vehicle: saline
# [12] = dose: 20.0 mg/kg/injection, schedule: Q01DX009 (ip), vehicle: saline
# [13] = dose: 100.0 mg/kg/injection, schedule: Q01DX009 (ip), vehicle: saline
smiles,measurement,setting,value
NC(Cc1ccc(O)cc1)C(=O)N/N=C/c1ccc(N(CCCl)CCCl)cc1 (stereo unspecified),T/C,"dose: 60.0 mg/kg/injection, schedule: Q01DX009 (ip), vehicle: Klucel (hydroxypropylcellulose) (HPC)",140 % of control
Cn1c2nc3ccccc3c-2nc2ccccc21,survivor count,[1],9 of 10
same,survivor count,[2],10 of 10
same,survivor count,"dose: 25.0 mg/kg/injection, schedule: Q01DX009 (ip), vehicle: water",10 of 10
same,survivor count,[3],10 of 10
same,survivor count,[4],10 of 10
CCSc1nc2nccnc2c(=O)[nH]1,survivor count,[5],0 of 10
COP12(OCCO1)SC(C(F)(F)F)=C(C(F)(F)F)S2,survivor count,[6],10 of 10
same,survivor count,[7],1 of 10
same,survivor count,[8],0 of 10
same,survivor count,[9],0 of 10
NC(CCC(=O)NC(CCC(=O)O)C(=O)NC(CCC(=O)O)C(=O)O)C(=O)O (stereo not drawn) (γGlu-Glu-Glu-OH; configuration not given here),survivor count,[10],10 of 10
COCCOCCN1CCN(CCCN2c3ccccc3Sc3ccc(C(F)(F)F)cc32)CC1,survivor count,"dose: 5.0 mg/kg/injection, schedule: Q01DX009 (ip), vehicle: saline",9 of 10
same,survivor count,[11],10 of 10
same,survivor count,[12],9 of 10
CCN(CC)CCCC(C)NCCCCNC(C)CCCN(CC)CC (stereo unspecified),T/C,"dose: 3.13 mg/kg/injection, schedule: Q01DX009 (ip), vehicle: water",125 % of control
same,T/C,"dose: 6.25 mg/kg/injection, schedule: Q01DX009 (ip), vehicle: water",133 % of control
same,T/C,[1],125 % of control
same,survivor count,"dose: 18.75 mg/kg/injection, schedule: Q01DX009 (ip), vehicle: alcohol",10 of 10
same,survivor count,"dose: 25.0 mg/kg/injection, schedule: Q01DX009 (ip), vehicle: alcohol",10 of 10
same,survivor count,"dose: 37.5 mg/kg/injection, schedule: Q01DX009 (ip), vehicle: alcohol",8 of 10
same,survivor count,"dose: 37.5 mg/kg/injection, schedule: Q01DX009 (ip), vehicle: water",5 of 10
same,survivor count,"dose: 50.0 mg/kg/injection, schedule: Q01DX009 (ip), vehicle: alcohol",1 of 10
same,survivor count,"dose: 50.0 mg/kg/injection, schedule: Q01DX009 (ip), vehicle: water",3 of 10
Cc1c(N)nc(C(CC(N)=O)NCC(N)C(N)=O)nc1C(=O)NC(C(=O)NC(C)C(O)C(C)C(=O)NC(C(=O)NCCc1nc(-c2nc(C(=O)NCCC[S+](C)C)cs2)cs1)C(C)O)C(OC1OC(CO)C(O)C(O)C1OC1OC(CO)C(O)C(OC(N)=O)C1O)c1cnc[nH]1 (stereo unspecified),survivor count,"dose: 31.3 mg/kg/injection, schedule: Q01DX009 (ip), vehicle: saline",10 of 10
same,survivor count,"dose: 62.5 mg/kg/injection, schedule: Q01DX009 (ip), vehicle: saline",10 of 10
O=C(O)c1ccc(O)c([N+](=O)[O-])c1,survivor count,[10],8 of 10
O=C[C@@H](CO)O[C@H](C=O)n1cnc2c(=O)[nH]cnc21,survivor count,"dose: 300.0 mg/kg/injection, schedule: Q01DX009 (ip), vehicle: saline",6 of 6
CC1CCCN(C)C1 (stereo unspecified),T/C,[2],126 % of control
Cc1[nH]c(=O)[nH]c(=O)c1C,survivor count,"dose: 50.0 mg/kg/injection, schedule: Q01DX009 (ip), vehicle: Klucel (hydroxypropylcellulose) (HPC)",10 of 10
[Cl][Pt+2][Cl].[NH-]c1ccc(Cl)cc1[NH-],T/C,"dose: 5.0 mg/kg/injection, schedule: Q01DX009 (ip), vehicle: saline with Tween-80",125 % of control
same,T/C,"dose: 10.0 mg/kg/injection, schedule: Q01DX009 (ip), vehicle: saline with Tween-80",137 % of control
S=C([S][Sn]([c]1ccccc1)([c]1ccccc1)[c]1ccccc1)N1CCCCC1,survivor count,[6],10 of 10
same,survivor count,[7],3 of 10
same,survivor count,[8],0 of 10
same,survivor count,[9],0 of 10
O=C1CCC(c2ccccc2)=NN1,survivor count,[7],10 of 10
same,survivor count,[8],8 of 10
same,survivor count,[9],7 of 10
CN(C)c1ncnc2c1ncn2C1OC(CO)C(N)C1O (stereo unspecified),survivor count,[13],9 of 10
CN1CCC(=C2c3ccccc3C=Cc3ccccc32)CC1,survivor count,"dose: 12.5 mg/kg/injection, schedule: Q01DX009 (ip), vehicle: saline",10 of 10
same,survivor count,[13],4 of 10
same,survivor count,"dose: 200.0 mg/kg/injection, schedule: Q01DX009 (ip), vehicle: saline",0 of 10
same,survivor count,[10],0 of 10
CCCCCCCCSCCO,survivor count,[6],10 of 10
CC1C=NNC1=O (stereo unspecified),T/C,"dose: 266.0 mg/kg/injection, schedule: Q01DX009 (ip), vehicle: saline with Tween-80",144 % of control
same,survivor count,"dose: 600.0 mg/kg/injection, schedule: Q01DX009 (ip), vehicle: saline with Tween-80",10 of 10
CN1CCN(CCNc2ccc(CO)c3sc4ccccc4c(=O)c23)CC1,survivor count,[3],10 of 10
same,survivor count,"dose: 150.0 mg/kg/injection, schedule: Q01DX009 (ip), vehicle: Klucel (hydroxypropylcellulose) (HPC)",10 of 10
COc1cc2c3c(c4ccc(OC)c(OC)c4c2cc1OC)CN1CCC[C@@H]1C3,T/C,"dose: 16.0 mg/kg/injection, schedule: Q01DX009 (ip), vehicle: saline with Tween-80",128 % of control
same,survivor count,"dose: 32.0 mg/kg/injection, schedule: Q01DX009 (ip), vehicle: saline with Tween-80",6 of 6
same,survivor count,"dose: 64.0 mg/kg/injection, schedule: Q01DX009 (ip), vehicle: saline with Tween-80",4 of 6
COC(=O)C(CSC(c1ccccc1)(c1ccccc1)c1ccccc1)NC(=O)C(CC(N)=O)NC(=O)OCc1ccccc1 (stereo not drawn) (Cbz-Asn-Cys(Trt)-OMe; configuration not given here),T/C,"dose: 50.0 mg/kg/injection, schedule: Q01DX009 (ip), vehicle: distilled water + Tween-80",128 % of control
same,T/C,"dose: 100.0 mg/kg/injection, schedule: Q01DX009 (ip), vehicle: distilled water + Tween-80",148 % of control
same,T/C,"dose: 200.0 mg/kg/injection, schedule: Q01DX009 (ip), vehicle: distilled water + Tween-80",145 % of control
same,survivor count,"dose: 400.0 mg/kg/injection, schedule: Q01DX009 (ip), vehicle: distilled water + Tween-80",9 of 10 and 10 of 10
N#CC(Br)C(N)=O (stereo unspecified),survivor count,[11],10 of 10
same,survivor count,[12],4 of 10
CC(=O)Oc1cc(C)c(OC(C)=O)c2ccccc12,survivor count,[4],0 of 10
O=C(Nc1ccccc1C(F)(F)F)c1ccc(C(=O)Nc2ccccc2C(F)(F)F)cc1,survivor count,[7],10 of 10
same,survivor count,[8],10 of 10
same,survivor count,[9],7 of 10
Cc1ccc(C)c(NC(=O)c2ccccc2C(=O)O)c1,survivor count,[5],9 of 10
CO[C@@]12[C@@H]3N[C@@H]3CN1C1=C(C(=O)C(NCc3ccco3)=C(C)C1=O)[C@@H]2COC(N)=O,T/C,"dose: 2.0 mg/kg/injection, schedule: Q01DX001 (ip), vehicle: distilled water + Tween-80",143 % of control
same,survivor count,"dose: 3.0 mg/kg/injection, schedule: Q04DX003 (ip), vehicle: distilled water + Tween-80",10 of 10
same,T/C,"dose: 4.0 mg/kg/injection, schedule: Q01DX001 (ip), vehicle: distilled water + Tween-80",144 % of control
same,survivor count,"dose: 48.0 mg/kg/injection, schedule: Q04DX003 (ip), vehicle: distilled water + Tween-80",10 of 10
COc1cc2c(cc1O)C(=O)CCCC2,T/C,[7],129 % of control
same,T/C,[8],134 % of control [9 of 10 alive]
CCOc1nsc(OCC)n1,survivor count,"dose: 200.0 mg/kg/injection, schedule: Q04DX003 (ip), vehicle: distilled water + Tween-80",9 of 10
same,survivor count,"dose: 400.0 mg/kg/injection, schedule: Q04DX003 (ip), vehicle: distilled water + Tween-80",8 of 10
